Type in all cases: cell-based
Test [1] deals with blood cancer cell lines versus non-blood cell lines. Put plainly: GDSC drug sensitivity (log IC50), blood versus non-blood cell lines. The procedure: (§1) Analogous to the protein and gene expression-based analysis, PCA was performed on the matrix of drug sensitivity IC50 values across lung adeno and lung SCN cell lines using all drugs in the screen. […] The inventors then projected all other cell lines onto this PCA space.
(§2) Particularly interesting were drugs with high differential sensitivity in both lung SCN versus adeno, and blood versus non-blood cell line comparisons, supporting that the drug acts through a shared SCN-blood mechanism. […] Of note, blood cancers and the majority of, but not all, SCN cancers grow in suspension in vitro. […] The parallel drug sensitivities of lung SCN and blood cancers (R=0.68) was maintained when the analysis was restricted to the 31% of SCLC lines in the drug sensitivity database that grow adherent in culture (R=0.69; n=20 adherent, n=6 semi-adherent, n=38 suspension) (FIG. 15D). Furthermore, SRBCTs largely grow adherent in culture (n=50 adherent, n=6 semi-adherent, n=6 suspension).
For LUAD and SCLC cell lines, differential sensitivity to each drug was calculated using the Student's t-test. These drugs were then ranked by the t-test statistic. Annotation on drug target and target pathway was obtained from the pharmacogenomics screen published by Iorio et al. From the annotation on drug targets, a list of genes or biological targets was obtained. […]

The test system of test [2] is small-round-blue cell tumor (SRBCT) cell lines. The test is described as follows: GDSC drug sensitivity (log IC50), SRBCT cell lines.
Description: as §2
For LUAD and SCLC cell lines, differential sensitivity to each drug was calculated using the Student's t-test. These drugs were then ranked by the t-test statistic. Annotation on drug target and target pathway was obtained from the pharmacogenomics screen published by Iorio et al. From the annotation on drug targets, a list of genes or biological targets was obtained. […] Missing values in the drug sensitivity data were imputed using the weighted average of k-nearest neighbors (n=3). […]

Test [3] has as its system lung SCN (SCLC) and lung adeno (LUAD) cell lines. Put plainly: GDSC drug sensitivity (log IC50), lung SCN versus lung adeno cell lines, Student's t-test. The procedure: as §1
For LUAD and SCLC cell lines, differential sensitivity to each drug was calculated using the Student's t-test. These drugs were then ranked by the t-test statistic. Annotation on drug target and target pathway was obtained from the pharmacogenomics screen published by Iorio et al. From the annotation on drug targets, a list of genes or biological targets was obtained. […] Missing values in the drug sensitivity data were imputed using the weighted average of k-nearest neighbors (n=3). For SCLC and LUAD samples that were used as training data, k-Nearest Neighbors (kNN) imputation was performed on the lung samples alone. kNN imputation was then then performed on all other cell lines together, excluding the SCLC and LUAD samples. PCA was performed on the imputed data. The inventors then projected the drug data for all lines onto the PCA defined on lung SCLC and LUAD, including cancer of hematological and neuroectodermal origin. Projected points (all lines excluding lung SCLC and LUAD) in the drug sensitivity plot were annotated by their expression projection values. […]

Molecules are shown by their SMILES.

As for `Nc1ccc(C(=O)Nc2cccc(-c3nc(N4CCOCC4)c4oc5ncccc5c4n3)c2)cn1` [YM201636], the “Blood vs OTHER signlogp” value in test [1] worked out at 39.68. Moreover, the “SRBCT vs OTHER signlogp” value in test [2] stood at 7.71. Besides, the “SCN - SCLC vs LUAD lung cancer signlogp” value in test [3] was determined as 1.35.
